This is one part of the list. The main result of the screen is listed elsewhere. These columns were measured beside it and carry no call. Most of these compounds were active or inconclusive in the main read-out, so they are no random draw. Words in brackets tell the shape of the fitted curve; partial curves, single points and poor fits give uncertain potencies.
Test: qHTS Assay for Lipid Storage Modulators in Drosophila S3 Cells;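 on cell number change: cells counted by Cell Tracker Red CMTPX staining in the red channel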
Settings: BODIPY lipid droplet fluorescence, 18-24 h; for cell number change: measured here: cell count max response, cells fed with added oleic acid
Summary of the method: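 Laser-scanning cytometry quantifies lipid droplet accumulation (500–530 nm total intensity; droplet/cell object ratio) in oleic acid-fed (400 uM added) Drosophila S3 cells treated with a concentration series. 20 uM Triacsin C defined 100% inhibition.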

[1] = measured here: lipid fluorescence (Fed channel) AC50, cells fed with added oleic acid
[2] = measured here: cell number channel AC50, cells fed with added oleic acid

SMILES	cell number change [%]	AC50 [1]	AC50 [2]
O=C(CSc1nnnn1C1CCCCC1)N1CCOCC1	13.9	–	–
COC(=O)[C@@]12OC[C@]34[C@H]([C@@H](O)[C@@H]1O)[C@@]1(C)C(=O)C(O[C@@H]5OC(CO)[C@@H](O)[C@@H](O)[C@@H]5O)=C[C@@H](C)[C@@H]1C[C@H]3OC(=O)[C@H](OC(=O)/C=C(\C)C(C)(C)OC(C)=O)[C@@H]24 (stereo not given in full)	-12.2	3.66 µM [falling, full curve, poor fit]	–
Cc1nnc(NCCc2ccccc2)[nH]c1=O	6.77	–	–
O=C(Cn1cnc2c(nnn2Cc2ccccc2)c1=O)c1ccccc1	14.1	0.184 µM [rising, full curve, poor fit]	–
CCCCCc1cc(=O)oc2c(C(CCN(CC)CC)c3ccc(N(C)C)cc3)c(OC)cc(OC)c12 (stereo not given)	-35.1	16.4 µM [falling, partial curve]	6.51 µM [falling, partial curve, poor fit]
CC1CCC2(CC1)NC(=O)N(CC(=O)NCCc1ccc(F)cc1)C2=O (stereo not given)	-2	0.411 µM [rising, full curve, poor fit]	–
Cc1oc(-c2ccccc2F)nc1CS(=O)(=O)CC(=O)N1CCc2ccccc21	36.6	5.8 µM [rising, full curve]	3.66 µM [rising, full curve]
FC(F)(F)c1ccc(C2NCCc3sccc32)cc1 (stereo not given)	-51.5	29.1 µM [falling, single point]	29.1 µM [falling, single point]
COc1ccc(-c2n[nH]c(=S)n2-c2ccc3c(c2)OCCO3)cc1	-33.3	–	0.00461 µM [falling, full curve, poor fit]
CCCNC(=O)CCn1cc(-c2ccc(OC)cc2)nc1-c1ccncc1	7.19	1.03 µM [rising, partial curve, poor fit]	–
COc1ccc(C)cc1NC(=O)c1cc2c(s1)CCC2	10.4	–	–
CCN(CC)S(=O)(=O)c1cc(NC(=O)C(C)Nc2ccccc2N2CCOCC2)ccc1C (stereo not given)	-1.22	29.1 µM [rising, partial curve, poor fit]	0.0259 µM [rising, full curve, poor fit]
O=C(c1ccccc1O)N1N=C(C(F)(F)F)CC1(O)c1ccc([N+](=O)[O-])cc1 (stereo not given)	-23.9	–	–
CN(C)Cc1ccccc1Sc1cccc2ccccc12	-71.1	–	0.00461 µM [falling, full curve, poor fit]
CCN(CC)c1ccc(/C=C2/C(=O)N(c3ccc([N+](=O)[O-])cc3)N=C2N2CCOCC2)cc1	0.141	–	–
CC(Cl)C(=O)Nc1cc(C(C)(C)C)nn1-c1ccccc1 (stereo not given)	–	0.146 µM [rising, single point]	–
COc1ccc(/C=N\NC(=O)CNC(=O)C2COc3ccccc3O2)cc1[N+](=O)[O-] (stereo not given)	-3.63	7.31 µM [falling, single point]	–
CN(C)c1ccc(CNC(=O)c2cc(S(=O)(=O)N3CCOCC3)cn2C)cc1	8.36	29.1 µM [rising, single point]	0.13 µM [rising, full curve, poor fit]
O=C(O)CCN1CCN(S(=O)(=O)c2ccc3ccccc3c2)CC1	9.94	13 µM [rising, partial curve]	–
Cc1ccc2nc(-c3ccccc3)c(CN3CCN(c4ccccc4F)CC3)n2c1	-11	–	–

SMILES	cell number change [%]	AC50 [1]	AC50 [2]
COc1cccc(/C(O)=C2/C(=O)C(=O)N(CCN(C)C)C2c2ccc(Br)cc2)c1 (stereo not given)	–	2.06 µM [falling, partial curve]	–
CC(C)Oc1ccc(C(=O)Nc2ccc(N3CCCCC3)cc2)cc1	4.31	–	–
CCOCCn1c(COc2ccc(C)cc2)nc2ccccc21	-15.9	7.31 µM [rising, partial curve]	–
O=C(Nc1ncn[nH]1)c1ccccc1Br	-29.9	0.517 µM [falling, full curve]	–
COC(=O)c1ccccc1OCCCN(C)C	-4	–	–
Cc1csc2nc(CCNS(=O)(=O)c3ccc4c(c3)OCCO4)cn12	3.55	11.6 µM [rising, single point]	–
BrC(=C\c1ccccc1)/C=N/N1CCN(Cc2ccccc2)CC1	113	5.17 µM [rising, single point]	25.9 µM [rising, single point]
COc1ccc(NC(=O)C2C3C=CC4(CN(Cc5cccnc5)C(=O)C24)O3)c(OC)c1 (stereo not given)	45.2	11.6 µM [rising, partial curve]	0.731 µM [rising, partial curve, poor fit]
CCC(=O)N1CCc2cc(S(=O)(=O)NCCC(=O)N3CCN(Cc4ccccc4)CC3)ccc21	-7.73	2.31 µM [rising, partial curve]	–
COc1ccc(OCC(=O)Nc2c(C(=O)N3CCN(C)CC3)oc3ccccc23)cc1	-18.8	11.6 µM [rising, partial curve]	–
O=c1[nH][nH]c(C(F)(F)F)c1C=NCc1ccccc1Cl	-0.724	–	–
CC(C)CCN1CC(C(=O)N2CCN(c3ccc(F)cc3)CC2)CC1=O (stereo not given)	178	–	29.1 µM [rising, single point]
CCCCN(CC)C(=O)c1cc2cc3ccc(Cl)cc3nc2o1	30.6	2.06 µM [rising, full curve]	2.91 µM [rising, single point]
NC(=O)N(CCC(=O)O)c1ccccc1	-31.3	4.61 µM [falling, full curve]	1.3 µM [falling, full curve, poor fit]
CCOc1ccccc1-c1nc(-c2cc3ccc(C)cc3[nH]c2=O)no1	-62.4	25.9 µM [falling, single point]	18.4 µM [falling, single point]
CCc1nnc(NC(=O)CSc2nnc(COc3ccc(C#N)cc3)n2-c2ccccc2)s1	-7.01	3.66 µM [rising, single point]	–
Cc1nn(CC(=O)NCCCN2C(C)CCCC2C)c(=O)c2cc3occc3n12 (stereo not given)	-7.96	–	0.92 µM [falling, full curve]
COC(=O)c1ccc2nc(NC(=O)CN3C(=O)CCC3=O)sc2c1	-37.1	29.1 µM [falling, single point]	32.6 µM [falling, partial curve]
COc1ccc(-c2cccc(NS(=O)(=O)c3cc([N+](=O)[O-])ccc3C)c2)nn1	–	–	1.46 µM [rising, partial curve]
C=CCOc1ccc(CN(C)CC(=O)Nc2ccccc2[N+](=O)[O-])cc1	32.9	29.1 µM [rising, partial curve, poor fit]	–

Already shown: entries from further up.
SMILES	cell number change [%]	AC50 [1]	AC50 [2]
COc1cccc(/C(O)=C2/C(=O)C(=O)N(CCN(C)C)C2c2ccc(Br)cc2)c1 (stereo not given)	–	2.06 µM [falling, partial curve]	–
CC(C)Oc1ccc(C(=O)Nc2ccc(N3CCCCC3)cc2)cc1	4.31	–	–
CCOCCn1c(COc2ccc(C)cc2)nc2ccccc21	-15.9	7.31 µM [rising, partial curve]	–
O=C(Nc1ncn[nH]1)c1ccccc1Br	-29.9	0.517 µM [falling, full curve]	–
COC(=O)c1ccccc1OCCCN(C)C	-4	–	–
Cc1csc2nc(CCNS(=O)(=O)c3ccc4c(c3)OCCO4)cn12	3.55	11.6 µM [rising, single point]	–
BrC(=C\c1ccccc1)/C=N/N1CCN(Cc2ccccc2)CC1	113	5.17 µM [rising, single point]	25.9 µM [rising, single point]
COc1ccc(NC(=O)C2C3C=CC4(CN(Cc5cccnc5)C(=O)C24)O3)c(OC)c1 (stereo not given)	45.2	11.6 µM [rising, partial curve]	0.731 µM [rising, partial curve, poor fit]
CCC(=O)N1CCc2cc(S(=O)(=O)NCCC(=O)N3CCN(Cc4ccccc4)CC3)ccc21	-7.73	2.31 µM [rising, partial curve]	–
COc1ccc(OCC(=O)Nc2c(C(=O)N3CCN(C)CC3)oc3ccccc23)cc1	-18.8	11.6 µM [rising, partial curve]	–
O=c1[nH][nH]c(C(F)(F)F)c1C=NCc1ccccc1Cl	-0.724	–	–
CC(C)CCN1CC(C(=O)N2CCN(c3ccc(F)cc3)CC2)CC1=O (stereo not given)	178	–	29.1 µM [rising, single point]
CCCCN(CC)C(=O)c1cc2cc3ccc(Cl)cc3nc2o1	30.6	2.06 µM [rising, full curve]	2.91 µM [rising, single point]
NC(=O)N(CCC(=O)O)c1ccccc1	-31.3	4.61 µM [falling, full curve]	1.3 µM [falling, full curve, poor fit]
CCOc1ccccc1-c1nc(-c2cc3ccc(C)cc3[nH]c2=O)no1	-62.4	25.9 µM [falling, single point]	18.4 µM [falling, single point]
CCc1nnc(NC(=O)CSc2nnc(COc3ccc(C#N)cc3)n2-c2ccccc2)s1	-7.01	3.66 µM [rising, single point]	–
Cc1nn(CC(=O)NCCCN2C(C)CCCC2C)c(=O)c2cc3occc3n12 (stereo not given)	-7.96	–	0.92 µM [falling, full curve]
COC(=O)c1ccc2nc(NC(=O)CN3C(=O)CCC3=O)sc2c1	-37.1	29.1 µM [falling, single point]	32.6 µM [falling, partial curve]

Later entries

SMILES	cell number change [%]	AC50 [1]	AC50 [2]
O=c1[nH]c(SCc2ccc(Cl)cc2)nc2[nH]ncc12	19	6.51 µM [rising, single point]	–
CC(C)c1nnc(NC(=O)c2nc(S(=O)(=O)Cc3ccc(F)cc3)ncc2Cl)s1	–	4.11 µM [falling, single point]	6.51 µM [falling, single point]
Cc1ccccc1N1CCN(C2=NC(=O)/C(=C/c3cn[nH]c3-c3ccccc3)S2)CC1	1.27	–	–
COCCn1nnnc1C(c1ccc(OC)c(OC)c1)N1CCc2ccccc21 (stereo not given)	10.9	5.17 µM [rising, partial curve]	–
O=[N+]([O-])c1cccc(Nc2c3ccccc3nc3ccccc23)c1	-18	32.6 µM [falling, single point]	–
CC1(C)C(=O)Nc2ccccc2N1C(=O)COc1cc(Cl)ccc1Cl	5.23	–	–
Cc1nc(SC(C(N)=O)c2ccccc2)c(C#N)c(C)c1C (stereo not given)	16.5	–	–
COc1ccc(C(C)C)cc1S(=O)(=O)NCc1ccccn1	-0.712	0.103 µM [falling, single point]	–
CCCCCCCCCCn1c2c(c(=N)c3c1CCC3)CCC2	-82.6	–	6.51 µM [falling, partial curve, poor fit]
CC1=CC(=O)C=C(C)C1=NOS(=O)(=O)c1ccccc1	-139	9.2 µM [falling, partial curve]	11.6 µM [falling, partial curve]
Cc1ccc(NC(=O)COC(=O)c2cc(Cl)ccc2[N+](=O)[O-])c(C)c1	9.67	–	–
O=C(COc1cccc2c1CCNC2=O)Nc1cccc(F)c1	-2.21	–	–
CC(C(=O)O)N1C(=O)c2cccc3cccc1c23 (stereo not given)	-16.2	18.4 µM [falling, partial curve]	–
CN1C/C(=C\c2ccc(N3CCOCC3)cc2)C(=O)/C(=C/c2ccc(N3CCOCC3)cc2)C1	–	11.6 µM [falling, partial curve]	–
Cc1ccnc(NC(=O)c2ccc(S(=O)(=O)NCc3ccco3)cc2)c1	28.9	2.91 µM [rising, full curve]	–
NC(=O)Cn1c2[n+](c3ccccc31)CC(O)CS2 (stereo not given)	-101	–	29.1 µM [falling, partial curve]
C=CCNC(=O)c1c2c(nc3ccccc13)-c1ccccc1CC2	13.2	–	–
CCc1nc2ccccc2n1Cc1ccc(F)cc1	3.3	4.61 µM [falling, single point]	–
CCCCCCC(=O)N(O)C1CC(=O)N(c2ccc(Cl)cc2)C1=O (stereo not given)	-59.7	16.4 µM [falling, single point]	20.6 µM [falling, single point]
Cc1cccc(CS(=O)(=O)c2ncc(Cl)c(C(=O)Nc3ccc(F)cc3)n2)c1	19.8	0.58 µM [falling, single point]	6.51 µM [falling, single point]

Source: PubChem BioAssay AID2685 (National Center for Advancing Translational Sciences (NCATS), 2010)
